From paper PMC11049809, “Determinants of mer Promoter Activity from Pseudomonas aeruginosa”

Target: T1, MerR (Tn501) (Pseudomonas aeruginosa (Tn501)) (UniProt P0A183)
T1 sequence (looked up, limits assumed): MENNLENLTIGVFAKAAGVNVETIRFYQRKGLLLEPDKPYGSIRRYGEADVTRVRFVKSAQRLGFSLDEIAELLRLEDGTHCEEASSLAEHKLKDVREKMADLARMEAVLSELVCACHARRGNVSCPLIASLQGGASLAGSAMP
Assay: EMSA
Details: 0-600 nM MerR, 30 nM DNA, no Hg stated; 10 mM Tris-HCl pH 8.0, 50 mM KCl, 5 mM MgCl2, 10% glycerol, 25 C 10 min; 8% native PAGE, 80 V 45 min; recombinant protein

Sequence: TTGACTCCGTACATGAGTACGGAAGTAAGGT (double strand) [Pmer WT]
- binding result: binds

For at least one entry, the source does not settle the construct or the ends of the probe. At least one verdict rests on a figure or table, not on a statement of the authors. Where a protein sequence is shown, tags need not be part of it.
